No constants are given. Whether binding was seen depends on the method and setting. Some binding calls cover weakened binding; strength is not graded here.
Target: T1, human BTNL8, isoform 1, on cells (human) (UniProt Q6UX41)
T1 sequence (looked up): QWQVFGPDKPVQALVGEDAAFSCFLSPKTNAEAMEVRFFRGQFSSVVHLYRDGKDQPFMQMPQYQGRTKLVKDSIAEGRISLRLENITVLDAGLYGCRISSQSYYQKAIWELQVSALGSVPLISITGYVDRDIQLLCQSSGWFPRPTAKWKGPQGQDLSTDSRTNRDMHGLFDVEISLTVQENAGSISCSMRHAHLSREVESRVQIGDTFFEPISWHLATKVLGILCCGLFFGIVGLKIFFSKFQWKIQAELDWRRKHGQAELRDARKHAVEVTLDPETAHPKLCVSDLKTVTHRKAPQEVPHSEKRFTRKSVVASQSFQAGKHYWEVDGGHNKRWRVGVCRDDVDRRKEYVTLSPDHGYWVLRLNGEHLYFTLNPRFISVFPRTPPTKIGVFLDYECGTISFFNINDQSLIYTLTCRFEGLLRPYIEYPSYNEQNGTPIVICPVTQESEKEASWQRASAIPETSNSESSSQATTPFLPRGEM
Experiment: FRET between C-terminal CFP/YFP tags on co-transfected NIH-3T3 cells, flow cytometry (FIG. 5D, FIG. 20A)

B1: human BTNL3 (butyrophilin-like molecule 3), isoform 1, on cells (ligand, UniProt Q6UXE8 18-466, looked up)
chain: QWQVTGPGKFVQALVGEDAVFSCSLFPETSAEAMEVRFFRNQFHAVVHLYRDGEDWESKQMPQYRGRTEFVKDSIAGGRVSLRLKNITPSDIGLYGCWFSSQIYDEEATWELRVAALGSLPLISIVGYVDGGIQLLCLSSGWFPQPTAKWKGPQGQDLSSDSRANADGYSLYDVEISIIVQENAGSILCSIHLAEQSHEVESKVLIGETFFQPSPWRLASILLGLLCGALCGVVMGMIIVFFKSKGKIQAELDWRRKHGQAELRDARKHAVEVTLDPETAHPKLCVSDLKTVTHRKAPQEVPHSEKRFTRKSVVASQGFQAGKHYWEVDVGQNVGWYVGVCRDDVDRGKNNVTLSPNNGYWVLRLTTEHLYFTFNPHFISLPPSTPPTRVGVFLDYEGGTISFFNTNDQSLIYTLLTCQFEGLLRPYIQHAMYDEEKGTPIFICPVSWG
In the case of B1, the binding is reported as “binds”.

— patent US20220273713A1, “METHOD OF INHIBITING OR ACTIVATING GAMMA DELTA T CELLS” (The University of Melbourne, priority 2019, published 2022)
